Measured values taken from patent US20040076995A1, “Nurr1 transcription factor 1-box mutants having monomeric transcriptional activation activity” (priority 2001, published 2004).

Experiments:
[1] = system: Nurr1 KLL(554-556)AAA + RXR Nurr1 K554A,L555A,L556A; assay: EMSA; conditions: no heterodimer on DNA; monomeric binding retained; protein translated in vitro; label: 32P (Klenow fill-in)
[2] = system: Nurr1 GKL(557-559)AAA + RXR Nurr1 G557A,K558A,L559A; assay: EMSA; conditions: no heterodimer on DNA; monomeric binding retained; protein translated in vitro; label: 32P (Klenow fill-in)

AGCTTAAGGGGTTCACCGAAAGTTCACTCGCAT (double strand) [betaRE probe (hRARbeta2 promoter RARE)]
binding result [1]: no binding | binding result [2]: no binding

For at least one entry, the source does not settle the construct or the ends of the probe. A negative result means that nothing was seen under these conditions.
